Laboratory results reported in article PMC6433232, “Targeting mitochondria in cancer therapy could provide a basis for the selective anti-cancer activity” (PLoS ONE, 2019).

System: primary acute myeloid leukemia (AML) cells obtained from patients
Assay: Kinase inhibitor library screening with and without NSC130362, primary AML cells
Format: cell-based, Human
Settings: ratio of EC50 for inhibitor to EC50 for inhibitor/NSC130362 combination, NSC130362 10 μM

Row | EC50 decrease, fold (Screen N 1) [fold] | EC50 decrease, fold (Screen N 2) [fold] | EC50 decrease, fold (Screen N 3) [fold] | Compound
1 | 0.5 | 4.0 | 31.9 | CC(C)n1nc(-c2cc3cc(O)ccc3[nH]2)c2c(N)ncnc21 [PP242]
2 | 1.1 | 1.0 | 941.1 | C[C@@H]1CCN(C(=O)CC#N)C[C@@H]1N(C)c1ncnc2[nH]ccc12 [Tofacitinib (CP-690550)]
